The record followed here is publication PMC12370185.

This is one part of the list.

Assay in all cases: EMSA with sequencing
Common to all, as to conditions: 10 mM Tris-Cl pH 7.5, 50 mM NaCl, 1 mM DTT, 0.25 mg/ml BSA, 2 mM MgCl2, 0.025% Nonidet P-40, 5% glycerol; 28 nM nucleosome library; 10 min on ice then 30 min …; high values mean tight binding; double strand, one strand shown
(In EMSA bound probe runs differently from free probe, usually more slowly.)

Assay [1] concerns KLF4 + histone octamer.
The test system of assay [2] is OCT4 + histone octamer.
The test system of assay [3] is SOX2 + histone octamer.
Assay [4] deals with c-MYC + MAX + histone octamer.

As for “GATGGACCCTATACGCGGCACCTCTGTTGCACTCTGCTTGCCCATACAAGCCTGTTTCAGGGGTGGATTATTTCTTTATAATGCAGCTTTGAACCATGTCTGAAATGTGTAAGAAAGACAACCAGATGGGCTGGATAAACTGCTTTTGTCTGAGCTGCAGCCAGACTCTGCTCAGTGGGTGTGGACAGGCTGCCAGCCTCACTGAGAAAGTGCCAGTCGGATAGTGTTCC”, the binding signal (log2 relative supershift) amounted to 2.67 in assay [1], 0.364 in assay [2], 1.35 in assay [3] and 1.04 in assay [4].

On to “GATGGACCCTATACGCGGCAGACAACTGTCACTAGGTCGTGTTTTCCCAAAGGAACTTCAGATGATTCTAACACCTCAATTTGCATGGTGCAATTCAATGTGAGAGTCAGAGTGGTACCACTCCTAACTCTACTTTTGCACTTAAAACTGTCCAAGTTCCACCCACAGTCAGCAACAAAGGTGTGTACTTGTCCCTAGTGTGTGGAACAATGCCAGTCGGATAGTGTTCC”, for which the binding signal (log2 relative supershift) was 1.04 in assay [1], 0.56 in assay [2], 1.67 in assay [3] and 0.238 in assay [4].

For the sequence “GATGGACCCTATACGCGGCGAATTGTGCACACACACACACACACACACACCACCTCCCACCCAATTCTTATGCTGAAGTCCTAACTCCCAGTATCCTGGAATGTGACCTTATTGAAATGGGTCATTGCAGATGCAATTAGTTAAGATGAAGTCATACTGGAATAGGTTGGGCCTCTAATTTGAACAACTAGTGTCCTTATAAAAAGGGGATGCCAGTCGGATAGTGTTCC”, the binding signal (log2 relative supershift) in assay [1] was found to be 2.43; in assay [2] it was 0.252; in assay [3] it was 1.58; in assay [4], 0.149.

For the sequence “GATGGACCCTATACGCGGCCCTGCTCCTTCAATGGCCAGCCTAAGTATCTCCACCTCTAGGATGCCTCCCTGTCCTCCCAGTGCTCTCTGATGCCCCTCCCTCTGGGCTCCCAGAGCACCCTGGAATGTGTCTATGAGAGAATTTAGGGTCCAGAACTGTGATAAGGATGTAGCACAGTGGCAGTGAGCATAGGCGCTGCCAGTTACAGGTGCCAGTCGGATAGTGTTCC”, the binding signal (log2 relative supershift) in assay [1] is 2.17; in assay [2], 0.0889; in assay [3], 0.257; in assay [4], 0.598.

As for “GATGGACCCTATACGCGGCTCCTAGGAAGAGCTCCATGGCTCCCTGACTTGCTCAACTGTTTTAAACCCCCACCCCACATGGAATAAGCACACTTCACCATTCTCTCACAACAACAATTAAGTCAACTTATCTTTGAATAAGTAGCTGGGGGTGGCGGGGACACACCCCTGAAGTGTGGGTTTAGGTTTGTTTGATTGGGGCGTGTGCTGTGCCAGTCGGATAGTGTTCC”, the binding signal (log2 relative supershift) in assay [1] was found to be 2.27; in assay [2] it was 0.762; in assay [3], 0.985; in assay [4], 1.07.

Consider “GATGGACCCTATACGCGGCAAGAACAGCACAGGAAAGACCTGTCCCCATAATTCAATCACTTCCCACCAGGTTCCTCCCATGACATGTGGGAATTGTGGGCGTAACAATTGAAGATGAGATTTGGGTGGGGACACAGCCAAACCATATCAATACCTCAACATAATAAAGGCCACATATGACAAACTCACAGCTAACATTGTATTGAGTGGTGCCAGTCGGATAGTGTTCC”, for which the binding signal (log2 relative supershift) in assay [1] amounted to 1.5; in assay [2], 0.115; in assay [3], 1.54; in assay [4], 0.295.

Regarding “GATGGACCCTATACGCGGCGGGCTCACTCACATGTGAGTGTTGGCTGGCTGTGGTCTAATCTCAGATAGCCTCAGCTGGGATATCTAAAGCGATTCAGCTCTGATCCATGTGTCTCTAGTAACAAGTCAGGGCTCGTTCTCATAACCAAGGCAGAAAGCAAACAAGCCCAGGCATACATACACTTTTCTTTTCTGATTGTATTATGTTTATGCCAGTCGGATAGTGTTCC”, the binding signal (log2 relative supershift) in assay [1] was 0.187; in assay [2], 0.706; in assay [3] it was 1.61; in assay [4], 0.165.

With “GATGGACCCTATACGCGGCTAGTAGAGACGGGTTTCACAGTGTTAGCCAGTATGGTCTCGATCTCCTGACCGACCTTGTGATCCACCCACCTCGGCCTCCCAAATTGCTGCAATTACAGGCATGAGCCACCACGCCTGGCTGGGGCAGGTAACAATTATAAGTTATGCTCAACTAAACCTTTAGTTTTAAGATGTTTTATATTCTGTATATGCCAGTCGGATAGTGTTCC”, the binding signal (log2 relative supershift) in assay [1] was 0.794; in assay [2], 0.231; in assay [3], 0.942; in assay [4] it was 0.625.

As for “GATGGACCCTATACGCGGCTCCATGGGTGCAGCAAGAGTGACAATACATCACAGCCTCGACATCTGTGACAAGCCCAGCCTTTTGACAGTCTAGTGAGGGGGTGTGCATCTTGAATATTACCAGATGTGTCACAATCTTTGTTCCCCAAATACTTACTCCCTTTTGGATAACAAAACAGCAGAAGACACTACTCAGAACAATTAAAAAGGTGCCAGTCGGATAGTGTTCC”, the binding signal (log2 relative supershift) in assay [1] stood at 1.58; in assay [2], 0.0312; in assay [3], 1.83; in assay [4] it was 0.419.

Consider “GATGGACCCTATACGCGGCGCTTTTAATCACTTCTTTGTAAAGCCCCACAGTTTTTGCTACTTATTCAGTCCCTCTGCATATCAAATTTGCATTTGAAGATACTCAAAGACTGCTTAAGTGACAAATCACAGATTGCACCAAGCAGGGTGTGAGTGCATGTGTTCTGTGCAGACAGGCTGCTCCAGTCTCACCTGGCTTTCAAAGCCCTCTGCCAGTCGGATAGTGTTCC”, for which the binding signal (log2 relative supershift) was determined as 1.46 in assay [1], 0.675 in assay [2], 1.08 in assay [3] and 0.823 in assay [4].

With “GATGGACCCTATACGCGGCGTCCCTACAATGGGCAGGGCTCTGTGTTGGTTTTTCATCCCATTTTGGCAATGAATAGGTACTGAAGACTCTCCCGGAACAGACTGCATCAAATGGTGATTGTTATACACTCAAGTGGATTCCTTCCTTCCTTTATCATGCAATCAGTGCAGATTCTCAGTTCATATCTGTCCCTGGAGTCTTACTCCACCTGCCAGTCGGATAGTGTTCC”, the binding signal (log2 relative supershift) worked out at 2.67 in assay [1], 0.115 in assay [2], 1.2 in assay [3] and 0.397 in assay [4].
